Some entries share one result that the patent states for a list of compounds.
How the values were obtained:
Format in all cases: in vivo
Spodoptera litura = assay: Insecticidal effect on Spodoptera litura (leaf disc immersion); conditions: after 120 h
Helicoverpa armigera = assay: Insecticidal effect on Helicoverpa armigera (leaf disc immersion, 24-well plate); conditions: after 120 h
Cnaphalocrocis medinalis = assay: Insecticidal effect on Cnaphalocrocis medinalis (rice seedling immersion); conditions: 72 h after inoculation
Plutella xylostella = assay: Insecticidal effect on Plutella xylostella (leaf disc immersion); conditions: 1 ppm reagent solution; third instar larvae; 3 days
Description: The test reagents were all dissolved in a mixed solvent of acetone:N′N′-dimethylcarboxamide (1:1) to give a 1000 mg/L solution. 1% Tween-80 was added as an emulsifier to each solution. These solutions were then diluted with 1% Tween-20 solution in water to give desired concentrations of test solutions. An aqueous solution containing 1% Tween-20 was used as a control.
Third instar larvae of Plutella xylostella were used. Cabbages were washed, air dried, punched into leaf discs, immersed in reagent solutions for 10 sec, taken out, naturally dried and then placed in a Petri dish. 10 third-instar larvae of Plutella xylostella were inoculated to each Petri dish, and three replicates were set. The number of deaths in 3 days was investigated, and the mortality was calculated.

SMILES | mortality of 3rd instar larvae of Spodoptera litura (Spodoptera litura; 1 ppm reagent solution) | mortality of 3rd instar larvae of Spodoptera litura (Spodoptera litura; 4 ppm reagent solution) | mortality of 3rd instar larvae of Helicoverpa armigera (Helicoverpa armigera; 1 ppm reagent solution) | mortality of 3rd instar larvae of Helicoverpa armigera (Helicoverpa armigera; 4 ppm reagent solution) | mortality of 3rd-4th instar larvae of Cnaphalocrocis medinalis (Cnaphalocrocis medinalis; 10 ppm reagent solution) | mortality of 3rd-4th instar larvae of Cnaphalocrocis medinalis (Cnaphalocrocis medinalis; 20 ppm reagent solution) | mortality of Plutella xylostella (Plutella xylostella)
Cc1cc(Cl)cc(C(=O)N(C)C(C)(C)C#N)c1NC(=O)c1cc(Br)nn1-c1ncccc1Cl [Compound 1.1, N-(2-N-((2-cyanopropan-2-yl)-N-methylcarbamoyl)-4-chloro-6-methylphenyl)-1-(3-chloropyridin-2-yl)-3-bromo-1H-pyrazol-5-carboxamide] | ≥ 80% | ≥ 80% | ≥ 80% | ≥ 80% | ≥ 80% | ≥ 80% | ≥ 90%
CN(C(=O)c1cc(Cl)cc(Cl)c1NC(=O)c1cc(Br)nn1-c1ncccc1Cl)C(C)(C)C#N [Compound 1.15, N-(6-N-((2-cyanopropan-2-yl)-N-methylcarbamoyl)-2,4-dichlorophenyl)-1-(3-chloropyridin-2-yl)-3-bromo-1H-pyrazol-5-carboxamide] | ≥ 80% | ≥ 80% | ≥ 80% | ≥ 80% | ≥ 80% | ≥ 80% | ≥ 90%
